Assay results published in patent US20260070976A1.
These are yes or no findings as the source states them, for the method shown. Some entries that bind do so weakly or less than the wild type.

The chains behind the UniProt entries cited, without tags or fusion partners. Where a name states a change or a piece, a line headed by the entry shows the natural chain unless it says otherwise.
UniProt Q9UKJ1: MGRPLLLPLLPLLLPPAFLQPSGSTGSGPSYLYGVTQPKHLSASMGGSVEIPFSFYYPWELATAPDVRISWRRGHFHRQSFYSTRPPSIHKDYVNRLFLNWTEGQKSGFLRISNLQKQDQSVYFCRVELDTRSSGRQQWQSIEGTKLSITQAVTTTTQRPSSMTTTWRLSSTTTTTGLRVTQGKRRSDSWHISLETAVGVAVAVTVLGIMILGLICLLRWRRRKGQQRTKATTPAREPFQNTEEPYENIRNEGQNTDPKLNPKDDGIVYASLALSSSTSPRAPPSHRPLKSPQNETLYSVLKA

Assays:
[1] = target: cell surface PILRA on human monocytes (human) (UniProt Q9UKJ1); experiment: Binding on hu mono (human monocytes), flow cytometry; summary cell
[2] = target: cell surface PILRA on human monocytes (human) (UniProt Q9UKJ1); experiment: flow cytometry, Alexa Fluor 647-conjugated antibody on human monocytes
[3] = target: cell surface PILRA on human monocytes (human) (UniProt Q9UKJ1); experiment: flow cytometry; Alexa Fluor 647-conjugated antibody on human CD14+ monocytes, Fc receptors blocked, 30 min on ice
[4] = target: cell surface PILRA on human monocytes (human) (UniProt Q9UKJ1); experiment: flow cytometry, antibody at 1 µg/mL on human monocytes (FIG. 1C)
[5] = target: cell surface PILRA on human monocytes (human) (UniProt Q9UKJ1); experiment: flow cytometry; Alexa Fluor 647-conjugated antibody at 1 ug/mL on human monocytes
[6] = target: cell surface PILRA on human monocytes (human) (UniProt Q9UKJ1); experiment: flow cytometry; Alexa Fluor 647-conjugated antibody on human CD14+ monocytes (second donor sample), Fc receptors blocked, 30 min on ice

| binding [1] | binding [2] | binding [3] | binding [4] | binding [5] | binding [6] | Binder |
| --- | --- | --- | --- | --- | --- | --- |
| binds | binds | binds |  |  |  | X14 (antibody, human IgG4, V domains shown) VH: QVQLVQSGAEVKKPGSSVKVSCKASGYNFLHYDVNWVRQAPGQGLEWMGGIIPIFGTANYAQKFQGRVTITADESTSTAYMELSSLRSEDTAVYYCATAVGAGWFDTWGQGTLVTVSS VL: DIVMTQSPDSLAVSLGERATINCKSSQSVYFSPNNKNYLAWYQQKPGQPPKLLIYWASTRESGVPDRFSGSGSGTDFTLTISSLQAEDVAVYYCQQYFEEPYTFGQGTRLEIK |
| binds | binds | binds |  |  |  | X7 (antibody, human IgG4, V domains shown) VH: QVQLVQSGAEVKKPGSSVKVSCKASGYNFLNYDVNWVRQAPGQGLEWMGGIIPIFGTANYAQKFQGRVTITADESTSTAYMELSSLRSEDTAVYYCATGVGAGWFDPWGQGTLVTVSS VL: DIVMTQSPDSLAVSLGERATINCKSSQSVFFDENNKNYLAWYQQKPGQPPKLLIYWASTRESGVPDRFSGSGSGTDFTLTISSLQAEDVAVYYCQQYFEEPYTFGQGTRLEIK |
| binds | binds | binds | binds | binds | binds | X11 (antibody, human IgG4, V domains shown) VH: QVQLVQSGAEVKKPGSSVKVSCKASGYNFLNYDVNWVRQAPGQGLEWMGGIIPIFGTANYAQKFQGRVTITADESTSTAYMELSSLRSEDTAVYYCATGVGAGWFDPWGQGTLVTVSS VL: DIVMTQSPDSLAVSLGERATINCKSSQSVYFSENNKNYLAWYQQKPGQPPKLLIYWASTRESGVPDRFSGSGSGTDFTLTISSLQAEDVAVYYCQQYYEEPYTFGQGTRLEIK |
| binds | binds | binds |  |  |  | X20 (antibody, human IgG4, V domains shown) VH: QVQLVQSGAEVKKPGSSVKVSCKASGYNFLHYDVNWVRQAPGQGLEWMGGIIPIFGTANYAQKFQGRVTITADESTSTAYMELSSLRSEDTAVYYCATAVGAGWFDPWGQGTLVTVSS VL: DIVMTQSPDSLAVSLGERATINCKSSQSVYFSENNKNYLAWYQQKPGQPPKLLIYWASTRESGVPDRFSGSGSGTDFTLTISSLQAEDVAVYYCQQYYEEPYTFGQGTRLEIK |
| binds | binds | binds | binds | binds | binds | X18 (antibody, human IgG4, V domains shown) VH: QVQLVQSGAEVKKPGSSVKVSCKASGYNFLHYDVNWVRQAPGQGLEWMGGIIPIFGTANYAQKFQGRVTITADESTSTAYMELSSLRSEDTAVYYCATAVGAGWFDTWGQGTLVTVSS VL: DIVMTQSPDSLAVSLGERATINCKSSQSVWFDPNNKNYLAWYQQKPGQPPKLLIYWASTRESGVPDRFSGSGSGTDFTLTISSLQAEDVAVYYCQQYFEEPYTFGQGTRLEIK |
